Primary screen of a compound library

From ChEMBL document CHEMBL3988442, “University of Dundee, Small-Polar-MMV Screening Library” (2021).

Mtb glucose medium: 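Whole-cell growth test on Mycobacterium tuberculosis, read after 3 days in glucose-containing 7H9 medium; the read-out is not stated. Tested at 50 µM. The record gives no direction; compounds that gave an IC50 in retests scored well above the rest, so higher reads as more growth inhibition. Of about 69,000 compounds tested this way, about 760 (1.1%) reached 50% or more in at least one test.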
Mtb cholesterol medium: 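Growth of Mycobacterium tuberculosis over 4 days (cholesterol / DPPC medium with tyloxapol); the read-out is not stated. Tested at 50 µM. Direction is inferred from retests: higher values go with more growth inhibition. About 69,000 compounds were tested under these conditions; 0.54% (about 370) showed 50% or more at least once.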

Results are given as percent effect. The controls that fix the scale are not given in the record; negative values are as filed. Compounds were drawn at random from those tested, without regard to their results. Two or more numbers in one place are separate tests of the same structure; such repeats can differ widely.

Result for COCCN1CCC2(CCC1=O)CN(c1ccnc(SC)n1)CCN2C (stereo not given) was Mtb glucose medium: -1.578%; Mtb cholesterol medium: -2.638% & 14.93%. Result for CC(NC(=O)Nc1nccs1)c1ccncc1 (stereo not given) was Mtb glucose medium: 19.1%; Mtb cholesterol medium: 9.192%. For CS(=O)(=O)c1cnc(CC2CC2)nc1C1CCCNC1 (stereo not given) the result was Mtb glucose medium: 18.93%; Mtb cholesterol medium: -50.11%. OCC1CCCN1c1cc(NCc2cccc3cccnc23)ncn1 (stereo not given) gave Mtb glucose medium: 6.233%; Mtb cholesterol medium: 32.34%. c1csc(CCN2CCCC2c2noc(C3CC3)n2)c1 (stereo not given) gave Mtb glucose medium: -2.82%; Mtb cholesterol medium: 8.771%.

Cc1cnn(CC2CCCCN2c2nn3cc(C)nc3s2)c1 (stereo not given) read Mtb glucose medium: -8.316%; Mtb cholesterol medium: -12.21%. CC(=O)N[C@@H]1CN(C2CCN(c3cccc(C)c3C)CC2)C[C@H]1C(C)C read Mtb glucose medium: -41.28%; Mtb cholesterol medium: -25.5%. With COc1ccc(C(=O)N(C)Cc2nnc3ccccn23)c(OC)c1 the screen gave Mtb glucose medium: 3.24%; Mtb cholesterol medium: -6.283%. For CCc1nc(CN2CCN(C(=O)c3csnn3)CC2)cs1 the result was Mtb glucose medium: -1.15%; Mtb cholesterol medium: 12.4%. For COc1ccc(F)cc1C(C)NC(=O)NCCCn1cncn1 (stereo not given) the result was Mtb glucose medium: 19.25%; Mtb cholesterol medium: 2.849%.

For Cn1ccc(CN2CCCC23CCN(Cc2cccc(F)c2)CC3)n1.O=C(O)C(F)(F)F.O=C(O)C(F)(F)F the result was Mtb glucose medium: -18.47%; Mtb cholesterol medium: -18.25%. CO[C@H]1CN(C(=O)c2cccc(C)n2)CC[C@@]12CCCO2 read Mtb glucose medium: 11.38%; Mtb cholesterol medium: -2.149% & -6.074%. Result for CN(C)C(=O)c1nc(CN2CC(Cc3ccccc3)CC2=O)no1 (stereo not given) was Mtb glucose medium: 0.924% & 21.89%; Mtb cholesterol medium: -13.51%. CN(Cc1cc2cc(F)ccc2[nH]1)C(=O)C1CC(=O)N(C2CC2)C1 (stereo not given) gave Mtb glucose medium: -50.29%; Mtb cholesterol medium: -13.41%. CCc1nnc2n1CCN(C(=O)c1ccc3nc(C)c(C)nc3c1)C2 gave Mtb glucose medium: 5.064% & -2.628%; Mtb cholesterol medium: 1.869%.

Cc1ccc(NS(=O)(=O)c2cc3c(c(C(=O)O)c2)OCCO3)cc1C gave Mtb glucose medium: 0.325%; Mtb cholesterol medium: -3.689%. With Cc1cc(C(=O)N2CCC3(CC2)C(=O)N(C)CCN3CC(C)C)c(C)o1.O=C(O)C(F)(F)F the screen gave Mtb glucose medium: -15.99%; Mtb cholesterol medium: -25.26%. With COCCN1CC(C(=O)N(CCN(C)C)Cc2ccc(C)s2)CC1=O (stereo not given) the screen gave Mtb glucose medium: 2.811%; Mtb cholesterol medium: 21.64%. Cc1ccc2oc(SCC(=O)NC(C)(C)C)nc2n1 gave Mtb glucose medium: 3.626%; Mtb cholesterol medium: 0.008822%. Cc1cccc(OC2CCN(C(=O)CNC(=O)N(C)C)CC2)c1 read Mtb glucose medium: -13.93%; Mtb cholesterol medium: -9.944%.

CC(CS(C)(=O)=O)NCc1cc(Cl)ccc1F (stereo not given) gave Mtb glucose medium: -6.16%; Mtb cholesterol medium: 10.28%. O=C(NCCCN1CCOCC1)c1cc(-c2ccco2)[nH]n1 read Mtb glucose medium: -8.026%; Mtb cholesterol medium: -8.912%. For O=S1(=O)CCCN1Cc1coc(-c2cccs2)n1 the result was Mtb glucose medium: -2.994% & -1.886%; Mtb cholesterol medium: -15.95%. With CN(C)c1ncccc1CNS(=O)(=O)c1ccccc1Cl the screen gave Mtb glucose medium: 20.75%; Mtb cholesterol medium: -1.646%. Cc1nc(C)c(S(=O)(=O)NC(=O)c2ccsc2)s1 read Mtb glucose medium: 21.58%; Mtb cholesterol medium: -4.221%.

With CC(C)n1[nH]c(=O)c2c1NC(=O)CC2c1cccnc1 (stereo not given) the screen gave Mtb glucose medium: -57.36%; Mtb cholesterol medium: -25.75%. For O=C(Cc1cccnc1)N1CCC2(CCN(C3CCOC3)CC2)C1 (stereo not given) the result was Mtb glucose medium: -18.73% & -8.466%; Mtb cholesterol medium: -20.28%. With Cc1ccoc1C(=O)N1CCC(n2cc(CO)nn2)CC1 the screen gave Mtb glucose medium: 29.61%; Mtb cholesterol medium: -18.01%. Result for CCn1nc(C)c2nc(C(C)C)nc(NCCCn3ccnc3)c21 was Mtb glucose medium: 16.63%; Mtb cholesterol medium: -10.73%. For COCC1CN(C(=O)Cc2ccccn2)Cc2c1cnn2CC1CC1.O=C(O)C(F)(F)F.O=C(O)C(F)(F)F (stereo not given) the result was Mtb glucose medium: -29.02%; Mtb cholesterol medium: -22.06% & 10.82%.

CN1CCN(C(=O)Cc2ccsc2)Cc2cccnc21.O=C(O)C(F)(F)F gave Mtb glucose medium: -19.04% & -1.451%; Mtb cholesterol medium: -29.02%. [H][C@@]12CCN(C(=O)C3CCOCC3)C[C@@]1([H])O[C@@H](c1nc(C)no1)C2 read Mtb glucose medium: -7.151%; Mtb cholesterol medium: 2.883%. Result for O=C(CCNC(=O)NC1CCN(C2CC2)CC1)NCc1ccccc1 was Mtb glucose medium: -2.39% & -0.7331%; Mtb cholesterol medium: -9.644%. Result for O=C(Cc1ccc2c(c1)CCCC2)N[C@@H]1CC[C@@H](n2ccnc2)[C@@H]1O was Mtb glucose medium: 0.8555%; Mtb cholesterol medium: -10.33%. Cc1ccc(NC(=O)N2CCCC(N(C)C)C2)c(Br)c1 (stereo not given) gave Mtb glucose medium: -19.04%; Mtb cholesterol medium: 0.5632%.

For CCN(c1ccc(C(=O)N(Cc2cnn(C)c2)C(C)C)cn1)C(C)C the result was Mtb glucose medium: -5.841%; Mtb cholesterol medium: 2.125%. CCN(Cc1ccccc1)C1CCN(c2cc(C)nn2C)C1=O (stereo not given) gave Mtb glucose medium: 24.46%; Mtb cholesterol medium: -2.82%. Result for Cc1cc(CCC(=O)Nc2nncs2)nc(C2CCCN2)n1.Cl (stereo not given) was Mtb glucose medium: -13.8%; Mtb cholesterol medium: -16.76%. For Cc1cc(NC(=O)CN(CC2CCOC2)C2CC2)no1 (stereo not given) the result was Mtb glucose medium: -2.477%; Mtb cholesterol medium: -1.615%. For O=C(c1ccc(F)c(Br)c1)N1CCCN2CCCC2C1 (stereo not given) the result was Mtb glucose medium: -12.54%; Mtb cholesterol medium: 8.403%.

Result for Cc1cnn(CCNCc2ccc(OCc3ccccn3)cc2)c1 was Mtb glucose medium: 16.03%; Mtb cholesterol medium: 13.98% & -4.915%. Result for CCN(CC)c1ncc2c(O)nc(C3CCNCC3)cc2n1 was Mtb glucose medium: 40.07%; Mtb cholesterol medium: 14.15%. Result for CCN(CC)C(=O)CNC(=O)N1CCC(c2ccccc2)C1 (stereo not given) was Mtb glucose medium: -1.445% & -19.45%; Mtb cholesterol medium: 5.147%. Cc1ncc(-c2ccnc(SCCN)n2)c(-c2ccco2)n1 gave Mtb glucose medium: 4.483%; Mtb cholesterol medium: -26.71%.

Repeated from the top, 3 entries:

{"smiles": "COCCN1CCC2(CCC1=O)CN(c1ccnc(SC)n1)CCN2C", "stereo": "stereo not given", "Mtb glucose medium": -1.578, "Mtb cholesterol medium": "-2.638 & 14.93"}
{"smiles": "CC(NC(=O)Nc1nccs1)c1ccncc1", "stereo": "stereo not given", "Mtb glucose medium": 19.1, "Mtb cholesterol medium": 9.192}
{"smiles": "CS(=O)(=O)c1cnc(CC2CC2)nc1C1CCCNC1", "stereo": "stereo not given", "Mtb glucose medium": 18.93, "Mtb cholesterol medium": -50.11}